Laboratory results published in publication doi:10.1101/2022.10.20.513059.
Results are given in words; binding and its absence hold for the method and conditions named. In cells and extracts the contact can be indirect. These calls come from enrichment with a bait or labelling near it, and not all partners need be listed.

Chains of the proteins cited; added tags and fusions are not shown. Lines headed by an entry give the natural chain unless they say otherwise; changes in a name come on top.
UniProt E9AM47: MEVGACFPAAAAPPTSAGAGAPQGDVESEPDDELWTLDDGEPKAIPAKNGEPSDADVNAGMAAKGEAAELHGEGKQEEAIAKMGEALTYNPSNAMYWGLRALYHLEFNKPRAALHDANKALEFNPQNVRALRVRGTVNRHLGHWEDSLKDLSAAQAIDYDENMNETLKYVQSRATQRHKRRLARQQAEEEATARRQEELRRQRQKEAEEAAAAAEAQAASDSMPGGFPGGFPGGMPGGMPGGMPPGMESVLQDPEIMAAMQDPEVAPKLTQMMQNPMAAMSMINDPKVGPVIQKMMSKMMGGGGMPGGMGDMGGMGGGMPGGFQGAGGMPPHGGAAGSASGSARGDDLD
UniProt E9B5D9: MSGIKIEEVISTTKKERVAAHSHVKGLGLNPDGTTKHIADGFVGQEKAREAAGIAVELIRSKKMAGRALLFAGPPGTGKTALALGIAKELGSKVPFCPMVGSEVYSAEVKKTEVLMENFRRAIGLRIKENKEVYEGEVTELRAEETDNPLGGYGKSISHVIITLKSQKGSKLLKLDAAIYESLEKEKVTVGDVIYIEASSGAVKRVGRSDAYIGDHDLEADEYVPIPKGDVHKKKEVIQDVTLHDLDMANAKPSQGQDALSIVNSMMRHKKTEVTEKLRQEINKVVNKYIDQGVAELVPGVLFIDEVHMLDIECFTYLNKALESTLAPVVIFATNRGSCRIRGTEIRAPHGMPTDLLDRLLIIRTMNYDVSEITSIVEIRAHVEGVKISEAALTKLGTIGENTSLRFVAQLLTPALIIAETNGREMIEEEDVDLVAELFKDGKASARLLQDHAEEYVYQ
UniProt E9B552: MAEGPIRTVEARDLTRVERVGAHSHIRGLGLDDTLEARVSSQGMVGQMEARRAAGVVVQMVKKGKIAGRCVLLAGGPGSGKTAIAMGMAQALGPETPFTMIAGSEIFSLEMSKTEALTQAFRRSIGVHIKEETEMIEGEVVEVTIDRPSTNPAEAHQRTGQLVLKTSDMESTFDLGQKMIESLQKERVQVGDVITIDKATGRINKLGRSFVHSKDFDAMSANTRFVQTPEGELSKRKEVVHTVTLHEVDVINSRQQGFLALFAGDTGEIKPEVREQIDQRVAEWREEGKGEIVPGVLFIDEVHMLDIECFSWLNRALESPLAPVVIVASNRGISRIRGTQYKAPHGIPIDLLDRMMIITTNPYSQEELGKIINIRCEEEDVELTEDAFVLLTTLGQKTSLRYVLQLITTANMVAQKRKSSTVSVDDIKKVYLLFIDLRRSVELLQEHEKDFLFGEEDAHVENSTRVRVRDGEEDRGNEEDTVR
UniProt E9ALS6: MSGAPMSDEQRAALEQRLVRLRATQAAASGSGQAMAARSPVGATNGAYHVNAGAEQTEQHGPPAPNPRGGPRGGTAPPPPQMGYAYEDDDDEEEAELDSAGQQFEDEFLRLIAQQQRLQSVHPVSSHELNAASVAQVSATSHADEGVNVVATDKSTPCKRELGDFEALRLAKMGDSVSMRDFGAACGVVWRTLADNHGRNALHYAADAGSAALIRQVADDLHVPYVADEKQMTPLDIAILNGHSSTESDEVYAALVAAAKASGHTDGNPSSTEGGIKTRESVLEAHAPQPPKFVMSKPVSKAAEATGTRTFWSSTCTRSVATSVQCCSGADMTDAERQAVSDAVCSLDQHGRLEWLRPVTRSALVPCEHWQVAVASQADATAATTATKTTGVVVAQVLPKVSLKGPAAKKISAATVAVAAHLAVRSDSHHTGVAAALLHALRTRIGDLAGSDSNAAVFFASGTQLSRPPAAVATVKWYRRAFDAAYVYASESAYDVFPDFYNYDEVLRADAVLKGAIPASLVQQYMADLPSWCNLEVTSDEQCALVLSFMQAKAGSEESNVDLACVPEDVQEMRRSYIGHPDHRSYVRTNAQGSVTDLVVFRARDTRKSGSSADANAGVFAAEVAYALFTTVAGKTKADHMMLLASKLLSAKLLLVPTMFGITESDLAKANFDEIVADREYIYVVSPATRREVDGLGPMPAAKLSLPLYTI
UniProt E9AQR7: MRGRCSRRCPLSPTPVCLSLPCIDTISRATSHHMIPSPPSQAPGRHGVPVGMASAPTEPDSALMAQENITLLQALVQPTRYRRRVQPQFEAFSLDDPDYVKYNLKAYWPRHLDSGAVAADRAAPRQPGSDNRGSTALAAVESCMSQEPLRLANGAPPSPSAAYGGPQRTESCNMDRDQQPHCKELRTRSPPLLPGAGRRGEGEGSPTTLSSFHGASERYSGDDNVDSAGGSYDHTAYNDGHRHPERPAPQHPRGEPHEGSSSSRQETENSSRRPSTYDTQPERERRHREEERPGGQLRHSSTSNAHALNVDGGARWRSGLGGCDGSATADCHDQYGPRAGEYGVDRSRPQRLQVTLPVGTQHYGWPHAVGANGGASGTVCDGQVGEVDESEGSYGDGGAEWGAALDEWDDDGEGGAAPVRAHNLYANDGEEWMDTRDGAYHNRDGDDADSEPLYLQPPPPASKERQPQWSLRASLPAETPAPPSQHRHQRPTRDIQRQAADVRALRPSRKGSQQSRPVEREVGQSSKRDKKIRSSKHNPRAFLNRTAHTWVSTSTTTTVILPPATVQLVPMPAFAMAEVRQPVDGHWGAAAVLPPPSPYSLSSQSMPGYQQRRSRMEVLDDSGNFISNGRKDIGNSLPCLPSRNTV

Columns and labels:
[1] = molecular target: TOR1 (LmxM.36.6320), N-terminally Twin-Strep-tagged (L. mexicana) (UniProt E9AU66); test: affinity purification with mass spectrometry
[2] = molecular target: RPTOR1 (LmxM.25.0610), N-terminally Twin-Strep-tagged (L. mexicana) (UniProt E9AXD8); test: affinity purification with mass spectrometry

binding [1]	binding [2]	Substance
binds	–	HIP (HSC-70 interacting protein, LmxM.08_29.0320) (from UniProt E9AM47)
binds	–	RPTOR1 (LmxM.25.0610), N-terminally Twin-Strep-tagged (from UniProt E9AXD8)
binds	–	RUVBL1 (LmxM.33.3500) (from UniProt E9B5D9)
binds	–	RUVBL2 (LmxM.33.2610) (from UniProt E9B552)
binds	binds	LmxM.08_29.1470 (from UniProt E9ALS6)
binds	binds	LmxM.16.1080 (from UniProt E9AQR7)
–	binds	TOR1 (LmxM.36.6320), N-terminally Twin-Strep-tagged (from UniProt E9AU66)
